At least one structure is not confirmed: it was looked up by name or label, or the drawing left a doubt.
Test system: Notch-1 (NICD)
Assay: NICD nuclear translocation in RIN cells (indirect immunofluorescence, immunoblot of nuclear extracts)
Format: cell-based, rat
Conditions: RIN cells treated with secretagogues
Method: Islet isolation, cell culture and treatments. Adult rat (Sprague-Dawley) and mouse (C57/BL6) islets were isolated by collagenase P digestion and cultured overnight in M199 medium (5 mM glucose). RIN 1046-38 β-cells were cultured as outlined previously (Wang, et al., Endocrinology, 142:1820-1827 (2001)). Isolated human islets came from David Harlan, Transplant Section, NIDDK. Ex-4, GLP-1, CCK (all used at concentrations previously shown to cause maximum insulin release), Ex and the γ-secretase inhibitor, L-685,458, were obtained from Bachem. H89 was from Calbiochem, insulin was from Sigma. The Jagged peptides, R-JAG […] (SEQ ID NO:1), JAG-1 […] (SEQ ID NO:2), and scrambled control peptide without agonist activity, sc-Jagged […] (Nickoloff, et al., Cell Death Differ, 9842-855 (2002)) (SEQ ID NO:3), were synthesised by New England Peptide Inc. […]
RIN cells were permeabilized in Triton-X (0.1%) on ice and blocked for 1 h at room temperature in 3% BSA and 0.1% Tween in PBS. They were incubated overnight at 4° C. with the primary antibody, washed in PBS and incubated with fluorescent labelled secondary antibody for 1 h, washed and mounted with fluorescence mounting medium (Vector Laboratories). […] AlexaFluor antibodies (Molecular Probes; Eugene, Oreg.) were excited with the 488-nm line of a krypton-argon laser and recorded at the presence of emission filter BP515-565 nm. […]

C=C[C@@]1(C)CC(=O)[C@]2(O)[C@@]3(C)[C@@H](O)CCC(C)(C)[C@@H]3[C@H](O)[C@H](OC(C)=O)[C@@]2(C)O1 [forskolin]
nuclear NICD / NICD translocation: increased nuclear NICD

From patent publication US7888116B2, “Uses of notch receptors, notch ligands, and notch modulators in methods related to metabolic diseases” (The United States of America as represented by the …, priority 2005, dated 2011)
